These are yes or no findings as the source states them, for the method shown. Binding seen in cells or lysates may run through a third protein. Some entries that bind do so weakly or less than the wild type. Tags and fused reporters may be left off the sequences shown.

Protein sequences, listed by entry. Tags and fused reporters are not part of them.
UniProt P04147: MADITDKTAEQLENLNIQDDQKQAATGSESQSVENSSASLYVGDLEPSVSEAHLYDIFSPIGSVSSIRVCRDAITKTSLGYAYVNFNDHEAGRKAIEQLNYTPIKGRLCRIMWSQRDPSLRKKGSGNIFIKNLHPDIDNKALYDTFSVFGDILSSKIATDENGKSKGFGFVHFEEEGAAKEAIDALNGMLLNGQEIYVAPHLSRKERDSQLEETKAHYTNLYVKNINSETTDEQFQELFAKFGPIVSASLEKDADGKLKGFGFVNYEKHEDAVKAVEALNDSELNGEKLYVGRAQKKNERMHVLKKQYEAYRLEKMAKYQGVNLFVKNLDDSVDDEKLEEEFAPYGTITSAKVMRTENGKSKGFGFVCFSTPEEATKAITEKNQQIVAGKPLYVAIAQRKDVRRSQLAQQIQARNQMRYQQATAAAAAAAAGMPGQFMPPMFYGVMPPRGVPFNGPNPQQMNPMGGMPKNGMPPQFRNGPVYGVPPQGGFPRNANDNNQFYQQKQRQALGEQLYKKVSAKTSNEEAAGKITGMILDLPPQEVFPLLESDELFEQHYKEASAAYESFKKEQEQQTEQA

The source of these data is publication doi:10.1101/2021.08.09.455688.

Test [1] has as its target T1, epitope-tagged N-terminal Sro9(1-151) (budding yeast) (UniProt P25567).
T1 sequence: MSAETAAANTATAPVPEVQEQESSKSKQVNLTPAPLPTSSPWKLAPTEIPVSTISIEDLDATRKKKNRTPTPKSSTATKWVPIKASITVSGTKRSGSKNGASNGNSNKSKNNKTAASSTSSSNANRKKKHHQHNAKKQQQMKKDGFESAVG
Description: co-IP.

The target of test [2] is T2, full-length Sro9 protein (epitope-tagged) (budding yeast) (UniProt P25567).
T2 sequence: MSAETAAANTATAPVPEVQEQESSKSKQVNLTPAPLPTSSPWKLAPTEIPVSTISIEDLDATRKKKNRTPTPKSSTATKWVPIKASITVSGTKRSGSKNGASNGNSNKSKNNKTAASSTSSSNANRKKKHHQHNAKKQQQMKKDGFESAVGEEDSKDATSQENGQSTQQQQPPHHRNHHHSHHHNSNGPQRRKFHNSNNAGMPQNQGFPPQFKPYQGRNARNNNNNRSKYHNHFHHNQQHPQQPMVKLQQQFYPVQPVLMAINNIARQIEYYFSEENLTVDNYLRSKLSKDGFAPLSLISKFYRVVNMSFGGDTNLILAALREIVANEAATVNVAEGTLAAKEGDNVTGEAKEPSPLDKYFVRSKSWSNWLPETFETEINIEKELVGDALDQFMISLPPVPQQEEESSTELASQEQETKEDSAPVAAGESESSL
The test can be described thus: co-IP.

For “poly(A)-binding protein Pab1 (from UniProt P04147 1-577)”, the binding entry in test [1] and in test [2] was “binds” each time.
